Test results reported in publication PMC2848158.
Results are given in words; binding and its absence hold for the method and conditions named. Binding seen in cells or lysates may run through a third protein. Some entries that bind do so weakly or less than the wild type.

Amino acid sequences for entries named in this document (tags omitted). A change or cut given only in a name is not applied to a line headed by its entry. Chains listed by the source or under a name are the forms on record and can include a tag or linker.
UniProt Q13761: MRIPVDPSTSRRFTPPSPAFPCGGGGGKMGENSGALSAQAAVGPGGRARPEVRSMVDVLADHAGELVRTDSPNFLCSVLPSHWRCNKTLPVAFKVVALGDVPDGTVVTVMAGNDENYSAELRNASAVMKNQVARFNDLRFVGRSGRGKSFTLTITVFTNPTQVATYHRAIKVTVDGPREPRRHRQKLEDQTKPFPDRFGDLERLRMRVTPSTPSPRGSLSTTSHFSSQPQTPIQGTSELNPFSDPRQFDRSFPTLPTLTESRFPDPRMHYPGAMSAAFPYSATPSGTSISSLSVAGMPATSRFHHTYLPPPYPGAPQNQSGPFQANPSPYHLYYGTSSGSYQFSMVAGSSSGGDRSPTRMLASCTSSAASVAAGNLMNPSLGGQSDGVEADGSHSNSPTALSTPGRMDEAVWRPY
GST-Runx1 from Homo sapiens (Q01196, form named): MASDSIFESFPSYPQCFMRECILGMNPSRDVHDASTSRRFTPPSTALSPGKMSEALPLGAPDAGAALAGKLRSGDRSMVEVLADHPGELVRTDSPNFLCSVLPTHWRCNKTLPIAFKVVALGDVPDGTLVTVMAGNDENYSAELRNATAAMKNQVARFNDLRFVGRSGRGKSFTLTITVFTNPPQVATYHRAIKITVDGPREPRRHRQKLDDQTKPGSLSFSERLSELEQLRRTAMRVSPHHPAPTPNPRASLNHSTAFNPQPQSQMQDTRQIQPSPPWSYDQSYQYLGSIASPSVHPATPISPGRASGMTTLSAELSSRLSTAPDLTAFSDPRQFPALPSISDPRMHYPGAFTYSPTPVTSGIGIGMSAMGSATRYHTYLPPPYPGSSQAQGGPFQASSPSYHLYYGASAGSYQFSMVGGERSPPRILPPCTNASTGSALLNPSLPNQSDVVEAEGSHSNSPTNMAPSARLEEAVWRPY

Columns and labels:
[1] = biological target: GST-Runx3 from Homo sapiens (Homo sapiens) (UniProt Q13761); experiment: pull-down; GST-Runx fusion proteins (1.5 μg) bound to 20 μl glutathione-Sepharose beads, incubated with nuclear extracts (150 μg) of ROS 17/2.8 cells cultured with 10^-8 M 1α,25-dihydroxyvitamin D3 for 18 h; VDR detected by Western blot; only the target purified
[2] = biological target: GST-Runx1 from Homo sapiens (Homo sapiens) (UniProt Q01196); experiment: as above

B1: endogenous mammalian VDR obtained from nuclear extracts of immortalized rat osteoblasts (protein, UniProt P13053 1-423)
chain: MEATAASTSLPDPGDFDRNVPRICGVCGDRATGFHFNAMTCEGCKGFFRRSMKRKALFTCPFNGDCRITKDNRRHCQACRLKRCVDIGMMKEFILTDEEVQRKREMIMKRKEEEALKDSLRPKLSEEQQHIIAILLDAHHKTYDPTYADFRDFRPPVRMDGSTGSYSPRPTLSFSGNSSSSSSDLYTTSLDMMEPSGFSNLDLNGEDSDDPSVTLDLSPLSMLPHLADLVSYSIQKVIGFAKMIPGFRDLTSDDQIVLLKSSAIEVIMLRSNQSFTMDDMSWDCGSQDYKYDVTDVSKAGHTLELIEPLIKFQVGLKKLNLHEEEHVLLMAICIVSPDRPGVQDAKLVEAIQDRLSNTLQTYIRCRHPPPGSHQLYAKMIQKLADLRSLNEEHSKQYRSLSFQPENSMKLTPLVLEVFGNEIS
Question: How did the binding [1] turn out when B1 was run?
Answer: Its binding is “binds”.

Question: What about the binding [2] of the same binder?
Answer: The binding was “binds”.
